Laboratory results published in patent US9441261B2, “Use of bacterial beta-lactamase for in vitro diagnostics and in vivo imaging, diagnostics and therapeutics” (priority 2008, dated 2016).
For some assays here: At least one read-out could not be matched to a standard name with certainty. For some assays here: At least one compound was matched to its structure with a doubt left.

Chains of the proteins cited; added tags and fusions are not shown. Residues count along the entry.
UniProt P62593, 24-286 limits assumed: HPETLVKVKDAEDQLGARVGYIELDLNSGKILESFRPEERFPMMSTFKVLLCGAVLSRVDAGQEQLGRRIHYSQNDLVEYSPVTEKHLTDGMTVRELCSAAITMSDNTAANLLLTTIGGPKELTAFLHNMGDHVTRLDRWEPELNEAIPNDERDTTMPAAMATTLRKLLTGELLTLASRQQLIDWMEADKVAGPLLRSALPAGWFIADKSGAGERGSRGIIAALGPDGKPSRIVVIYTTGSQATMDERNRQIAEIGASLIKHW

How the values were obtained:
TEM-1 Bla = TEM-1 Bla (Escherichia coli, UniProt P62593); format: biochemical, E. coli
Bacillus Calmette-Guerin = format: cell-based, Mycobacterium bovis; conditions: 2 ng/μl rifampicin or 0.2 ng/μl INH, sputum, CDG-OMe, 24 hour

| SMILES | kcat/Km (TEM-1 Bla) | fluorescence of BCG with drug over time (Bacillus Calmette-Guerin) |
| --- | --- | --- |
| O=C(Cc1ccccc1)N[C@@H]1C(=O)N2C(C(=O)O)=C(COc3ccc4ccc(=O)oc4c3)C[S+]([O-])[C@H]12 (some centres unmarked) [CDC-2] | 1.5 × 10^4 s^−1M^−1 |  |
| CO[C@H]1/C=C/O[C@@]2(C)Oc3c(C)c(O)c4c(O)c(c(/C=N/N5CCN(C)CC5)c(O)c4c3C2=O)NC(=O)/C(C)=C\C=C\[C@H](C)[C@H](O)[C@@H](C)[C@@H](O)[C@@H](C)[C@H](OC(C)=O)[C@@H]1C [rifampicin] |  | effectively no increase in fluorescence |
